Record: PubChem BioAssay AID652243 (Drosophila RNAi Screening Center, 2013)
Screen: 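Fly genes required for human androgen receptor driven transcription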 (primary screen). System: Drosophila S2R+ cells. Reagents: long dsRNA against Drosophila genes. Time to read-out: 72 h (48 h, then 24 h hormone). Challenge: synthetic androgen R1881 at 10 nM for 24 h. Detection: 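Per-well raw luminescence of the androgen-driven firefly reporter and of the Renilla control, two replicates each, without normalisation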. Scale: firefly reporter light: higher = more light from androgen-responsive reporter; Renilla control light: higher = more constitutive control signal (cell number, transfection). Hit rule: 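Hit when the log firefly-to-Renilla ratio dropped or increased by a fixed fold versus the mean of GFP or LacZ controls across duplicate plates; lowering cut given as 1.5 and as 3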. Meaning of the calls: active = hit: reporter lowered or raised; inactive = no hit.
The deposit covers about 24,000 reagents; this is a random part of those that have a named target and a result. Of all reagents, 246 (1%) were called active. 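Plates not normalised; calls are printed but the firefly/Renilla ratio behind them is not deposited; fold cut for lowering reported inconsistently.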 The raw values are shown without normalisation. The numbers tell different reagents against one gene apart. Names joined by + are all predicted targets of the reagent. The record does not give: the amount of reagent.

no.	target	reagent no.	firefly reporter light, replicate 1	firefly reporter light, replicate 2	Renilla control light, replicate 1	Renilla control light, replicate 2	call
1	CG11378	1	2.69e5	3.13e5	3.59e6	2.91e6	inactive
2	CG11378	2	5.56e5	4.40e5	1.39e6	1.36e6	inactive
3	RNASEK (Ribonuclease kappa)	1	8.62e5	6.75e5	3.21e6	2.67e6	inactive
4	Mgat4a	1	5.83e5	7.24e5	2.08e6	2.23e6	inactive
5	Mgat4a	2	73304	96716	8.24e5	1.26e6	inactive
6	obst-G (obstructor-G)	1	1.21e5	71816	1.30e6	4.74e5	inactive
7	CG10841	1	22300	66231	3.02e5	3.18e5	inactive
8	CG10841	2	6.42e5	6.87e5	1.03e6	1.22e6	inactive
9	Tsp42El (Tetraspanin 42El)	1	1.04e6	7.96e5	2.17e6	2.83e6	inactive
10	Sgt1 (suppressor-of-G2-allele-of-skp1)	1	91290	93117	1.57e6	1.21e6	inactive
11	Sgt1 (suppressor-of-G2-allele-of-skp1)	2	5.64e5	4.57e5	1.79e6	1.58e6	inactive
12	Tep3 (Thioester-containing protein 3)	1	2.20e5	1.89e5	1.74e6	1.38e6	inactive
13	CG14545	1	1.52e5	2.24e5	2.78e6	2.61e6	inactive
14	CG14545	2	2.77e5	1.80e5	4.40e5	7.41e5	inactive
15	asRNA:CR31514 + CG12947	1	93995	1.24e5	1.73e6	1.79e6	inactive
16	SNF4Agamma (SNF4/AMP-activated protein kinase gamma subunit)	1	67331	24208	1.83e5	98499	inactive
17	SNF4Agamma (SNF4/AMP-activated protein kinase gamma subunit)	2	5.79e5	6.04e5	1.80e6	2.00e6	inactive
18	SNF4Agamma (SNF4/AMP-activated protein kinase gamma subunit)	3	2.47e5	2.57e5	2.97e6	3.16e6	inactive
19	SNF4Agamma (SNF4/AMP-activated protein kinase gamma subunit)	4	49292	43815	5.79e5	4.71e5	inactive
20	SNF4Agamma (SNF4/AMP-activated protein kinase gamma subunit)	5					inactive
21	Dsk (Drosulfakinin)	1	75838	59225	2.16e6	1.70e6	inactive
22	CG43867	1	2.31e5	1.59e5	2.69e6	2.23e6	inactive
23	CG43867	2	2.84e5	2.97e5	3.46e6	3.10e6	inactive
24	CG43867	3	1.03e6	2.10e6	1.27e6	2.41e6	inactive
25	CG43867	4	2.07e5	1.46e5	2.89e6	2.55e6	inactive
26	CG43867	5	4.07e5	3.27e5	1.08e6	7.80e5	inactive
27	CG43867	6	5.38e5	5.27e5	2.06e6	1.40e6	inactive
28	CARPA (Carbonic anhydrase-related protein A)	1	2.02e5	3.49e5	3.32e6	3.36e6	inactive
29	CARPA (Carbonic anhydrase-related protein A)	2	9.65e5	7.64e5	2.32e6	2.03e6	inactive
30	CG46339	1	84891	67476	6.79e5	6.13e5	inactive
31	CG46339	2	2.69e5	1.70e5	6.02e5	2.82e5	inactive
32	Ggamma30A + borr	1	6.42e5	6.84e5	9.90e5	1.06e6	inactive
33	Acsf3 (Acyl-CoA synthetase family member 3)	1	3.07e5	4.89e5	2.65e6	3.30e6	inactive
34	CecC (Cecropin C)	1	1.42e5	1.20e5	2.45e6	2.38e6	inactive
35	CG12869	1	44214	83850	7.80e5	7.80e5	inactive
36	CG30378	1	1.12e5	1.61e5	3.81e5	6.12e5	inactive
37	CG7573	1	2.67e5	2.38e5	2.49e6	1.34e6	inactive
38	lncRNA:CR34044 (long non-coding RNA:CR34044)	1	1.14e6	8.42e5	2.11e6	2.17e6	inactive
39	pix (pixie)	1	2.03e5	1.88e5	2.14e6	1.52e6	inactive
40	Dab (Disabled)	1	3.78e5	4.22e5	2.24e6	2.42e6	inactive

6 entries from above, showing only “firefly reporter light, replicate 1”.
CG11378 #1 = 2.69e5
CG11378 #2 = 5.56e5
RNASEK (Ribonuclease kappa) = 8.62e5
Mgat4a #1 = 5.83e5
Mgat4a #2 = 73304
obst-G (obstructor-G) = 1.21e5
